In publication doi:10.1101/699132 (bioRxiv, 2020) one finds binding data, which are given here for one substance.

The chains behind the UniProt entries cited, without tags or fusion partners. Residues count along the entry.
UniProt P11021, residues 19-654: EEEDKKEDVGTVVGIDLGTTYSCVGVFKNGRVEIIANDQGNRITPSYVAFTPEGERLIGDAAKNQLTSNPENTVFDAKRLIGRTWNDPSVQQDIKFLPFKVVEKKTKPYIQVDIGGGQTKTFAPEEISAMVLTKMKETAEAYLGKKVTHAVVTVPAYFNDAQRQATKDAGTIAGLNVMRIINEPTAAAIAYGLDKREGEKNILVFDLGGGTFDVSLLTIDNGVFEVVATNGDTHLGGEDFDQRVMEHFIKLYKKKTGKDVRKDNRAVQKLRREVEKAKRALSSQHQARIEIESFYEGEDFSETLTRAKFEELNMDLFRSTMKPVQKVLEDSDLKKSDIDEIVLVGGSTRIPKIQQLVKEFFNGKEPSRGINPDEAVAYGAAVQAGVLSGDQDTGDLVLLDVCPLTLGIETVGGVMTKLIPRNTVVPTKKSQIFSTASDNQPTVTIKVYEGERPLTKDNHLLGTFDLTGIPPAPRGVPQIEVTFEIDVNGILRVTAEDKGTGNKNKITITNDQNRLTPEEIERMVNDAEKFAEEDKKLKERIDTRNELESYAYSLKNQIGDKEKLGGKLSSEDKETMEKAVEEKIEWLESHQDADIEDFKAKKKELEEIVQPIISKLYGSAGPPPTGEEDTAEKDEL

These are yes or no findings as the source states them, for the method shown. Binding seen in cells or lysates may run through a third protein. Some binding calls cover weakened binding; strength is not graded here. Tags and fused reporters may be left off the sequences shown.

The target in this experiment is T1, Flag-tagged human PRDX4 (human) (UniProt Q13162).
T1 sequence: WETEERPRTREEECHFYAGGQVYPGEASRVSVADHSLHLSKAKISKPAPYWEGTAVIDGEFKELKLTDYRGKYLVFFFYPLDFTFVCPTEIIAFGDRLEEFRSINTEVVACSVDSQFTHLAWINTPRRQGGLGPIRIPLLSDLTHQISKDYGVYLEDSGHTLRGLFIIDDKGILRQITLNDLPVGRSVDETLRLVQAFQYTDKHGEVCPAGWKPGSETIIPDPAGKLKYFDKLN
As to the kind of experiment: co-IP.

Turning to “BiP, HEK293A cells (from UniProt P11021 19-654)”, the binding result is “binds”.
